Reference: PubChem BioAssay AID206 (DTP/NCI, 2004)
The list is a part of this screen's results and no random one: it is rich in T/C values a quarter to a half above the control, in often repeated tests (any T/C) and in doses without a T/C. Further doses and runs are listed elsewhere. T/C gives the treated animals as a percentage of the vehicle group. Schedule codes are those of the source, read here as Q, the interval in days (D) or hours (H), X, the number of doses. Some T/C values are followed by the survivors on the day toxicity was checked, most often the fifth; without a count, all were alive then. Some entries give survivors of the animals treated and no T/C: the source files T/C as zero there, which appears to mark a toxic dose or a test without result, not a measured value. Survivors were counted at the toxicity check, usually on the fifth day, unless a day is given; later deaths do not show. Some entries hold several experiments; the results are listed from low to high.

Tested on: nude mice, HT29 intrarenal xenograft, tumor weight T/C
Assay: NCI In Vivo Anticancer Drug Screen. Data for tumor model HT29;CX-1 Human Adenocarcinoma (MER+) (intrarenal inoculation) in NU/NU Swiss (nude) mice
Conditions: T/C endpoint: mean tumor weight change, higher T/C = larger tumour
In short: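 T/C = treated-group value ÷ vehicle-group value, using tumor size or survival.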

[1] = dose: 300.0 mg/kg/injection, schedule: Q04DX004 (sc), vehicle: Klucel (hydroxypropylcellulose) (HPC)
[2] = dose: 600.0 mg/kg/injection, schedule: Q04DX004 (sc), vehicle: Klucel (hydroxypropylcellulose) (HPC)
[3] = dose: 400.0 mg/kg/injection, schedule: Q01DX010 (sc), vehicle: saline

O=c1s[se]c2ccccc12
T/C (dose: 75.0 mg/kg/injection, schedule: Q04DX004 (sc), vehicle: Klucel (hydroxypropylcellulose) (HPC), evaluated on day 15): 133 % of control [4 of 6 alive on day 15] | survivor count (dose: 150.0 mg/kg/injection, schedule: Q04DX004 (sc), vehicle: Klucel (hydroxypropylcellulose) (HPC)): 3 of 6 on day 15 | survivor count [1]: 2 of 6 on day 15 and 3 of 5 on day 15 | survivor count [2]: 0 of 6 on day 15

O=C(CCCN1CCC(O)(c2cccc(C(F)(F)F)c2)CC1)c1ccc(F)cc1
survivor count (dose: 100.0 mg/kg/injection, schedule: Q01DX010 (sc), vehicle: Klucel (hydroxypropylcellulose) (HPC)): 1 of 3 on day 11 | survivor count (dose: 200.0 mg/kg/injection, schedule: Q01DX010 (sc), vehicle: Klucel (hydroxypropylcellulose) (HPC)): 0 of 3 on day 11 and 1 of 3 on day 11

N#C[Se-].c1ccc([Te+](c2ccccc2)c2ccccc2)cc1
survivor count (dose: 50.0 mg/kg/injection, schedule: Q04DX004 (sc), vehicle: Klucel (hydroxypropylcellulose) (HPC)): 0 of 6 on day 15 | survivor count (dose: 100.0 mg/kg/injection, schedule: Q04DX004 (sc), vehicle: Klucel (hydroxypropylcellulose) (HPC)): 0 of 6 on day 15

CCCCCCCCCCC(OC(C)=O)C1CCC(C2CCC(C(O)CCCCCCCCCCCCC3C=C(C)OC3=O)O2)O1 (stereo not drawn)
survivor count (dose: 100.0 mg/kg/injection, schedule: Q04DX004 (sc), vehicle: water): 1 of 5 on day 15 | survivor count (dose: 200.0 mg/kg/injection, schedule: Q04DX004 (sc), vehicle: water): 0 of 6 on day 15

COC(=O)C12OCC34C(CC5C(C)C6=CC(=O)OC6=CC5(C)C3C(O)C1O)OC(=O)C(OC(C)=O)C24 (stereo not drawn)
T/C (dose: 2.5 mg/kg/injection, schedule: Q04DX004 (sc), vehicle: saline + alcohol, evaluated on day 15): 144 % of control

COc1cc2cc3cc4cc(OC)c(OC)cc4c(C)[n+]3cc2cc1OC (tested in a mixture with another compound)
survivor count (dose: 1600.0 mg/kg/injection, schedule: Q04DX004 (sc), vehicle: suspension in saline): 0 of 6 on day 15

C=CC(=O)N1CN(C(=O)C=C)CN(C(=O)C=C)C1
survivor count (dose: 25.0 mg/kg/injection, schedule: Q01DX010 (sc), vehicle: saline with Tween-80): 1 of 3 on day 11 | survivor count (dose: 50.0 mg/kg/injection, schedule: Q01DX010 (sc), vehicle: saline with Tween-80): 0 of 3 on day 11

[N-]=[N+]=CC(=O)CCC(N)C(=O)O (stereo not drawn)
survivor count (dose: 0.4 mg/kg/injection, schedule: Q01DX010 (sc), vehicle: saline): 0 of 3 on day 11 | survivor count (dose: 0.8 mg/kg/injection, schedule: Q01DX010 (sc), vehicle: saline): 0 of 3 on day 11 and 1 of 3 on day 11 | survivor count (dose: 1.6 mg/kg/injection, schedule: Q01DX010 (sc), vehicle: saline): 0 of 3 on day 11 | survivor count (dose: 3.2 mg/kg/injection, schedule: Q01DX010 (sc), vehicle: saline): 0 of 3 on day 11 | survivor count (dose: 6.4 mg/kg/injection, schedule: Q01DX010 (sc), vehicle: saline): 0 of 3 on day 11

CCNC(=O)[B-][N+](C)(C)C
survivor count (dose: 800.0 mg/kg/injection, schedule: Q04DX004 (sc), vehicle: saline): 0 of 6 on day 15

CCN(CC)CCNc1ccc(C)c2sc3ccccc3c(=O)c12
T/C (dose: 50.0 mg/kg/injection, schedule: Q01DX010 (sc), vehicle: saline, evaluated on day 20): 142 % of control | survivor count (dose: 200.0 mg/kg/injection, schedule: Q01DX010 (sc), vehicle: saline): 1 of 3 on day 20 | survivor count [3]: 0 of 3 on day 20

CCOC(=O)c1c[nH]c2oc(/C=N/N3CC(CN4CCOCC4)OC3=O)cc2c1=O (stereo not drawn)
survivor count [3]: 0 of 3 on day 11

CC(=O)C1(O)Cc2c(O)c3c(c(O)c2C(OC2CC(N)C(O)C(C)O2)C1)C(=O)c1ccccc1C3=O (stereo not drawn)
survivor count (dose: 2.0 mg/kg/injection, schedule: Q04DX004 (sc), vehicle: water): 2 of 5 on day 15 | survivor count (dose: 4.0 mg/kg/injection, schedule: Q04DX004 (sc), vehicle: water): 0 of 6 on day 15 | survivor count (dose: 8.0 mg/kg/injection, schedule: Q04DX004 (sc), vehicle: water): 0 of 6 on day 15

NCCCC(N)(C(=O)O)C(F)F (stereo not drawn)
T/C (dose: 2400.0 mg/kg/injection, schedule: Q04DX004 (sc), vehicle: distilled water + alcohol, evaluated on day 15): 136 % of control [5 of 6 alive on day 15]

COC1CC(C)C(OC)C2=CC(=O)C=C(NC(=O)/C(C)=C/C=C\C(C)C(OC(N)=O)/C(C)=C\C(C)C1OC)C2=O (stereo not drawn)
survivor count (dose: 100.0 mg/kg/injection, schedule: Q04DX004 (sc), vehicle: saline + alcohol): 0 of 6 on day 15

CC1(C)CC23C4COC(=O)C2CCC1C3CC4=O (stereo not drawn)
T/C (dose: 200.0 mg/kg/injection, schedule: Q04DX004 (sc), vehicle: DMSO, evaluated on day 15): 140 % of control

CCc1ccc(C2=C(O)C(=O)C(c3ccccc3)=C(O)C2=O)cc1
T/C (dose: 150.0 mg/kg/injection, schedule: Q04DX004 (sc), vehicle: Klucel (hydroxypropylcellulose) (HPC), evaluated on day 15): 138 % of control | survivor count [1]: 1 of 6 on day 15 | survivor count [2]: 1 of 6 on day 15

COC(=O)NC1C(C)OC(OC2C/C=C(/C)C3C=CC4C(OC5CC(OC6CCC(OC7CC(O)C(OC8CCC(O)C(C)O8)C(C)O7)C(C)O6)C(OC(C)=O)C(C)O5)C(C)CC(C)C4C3(C)/C(O)=C3/C(=O)OC4(CC(C=O)=CC(O)C4/C=C\2C)C3=O)CC1(C)[N+](=O)[O-] (stereo not drawn)
survivor count (dose: 100.0 mg/kg/injection, schedule: Q04DX004 (sc), vehicle: other): 0 of 6 on day 15

CCCCCCCCCCCCCCCCP(=O)(OCCOCCCCCC)OCCOCCCCCC
T/C (dose: 150.0 mg/kg/injection, schedule: Q04DX004 (sc), vehicle: saline, evaluated on day 15): 126 % of control

O=C(O)CSc1nc(-c2ccccc2)c(-c2ccccc2)n1-c1ccccn1
survivor count (dose: 500.0 mg/kg/injection, schedule: Q04DX004 (sc), vehicle: water): 0 of 5 on day 15 | survivor count (dose: 1000.0 mg/kg/injection, schedule: Q04DX004 (sc), vehicle: water): 0 of 5 on day 15

CC1=CC2C(O)(CC(CO)=CC3C4C(C)(C)C4(OC(=O)c4ccccc4)C(OC(=O)c4ccccc4)C(C)C32O)C1=O (stereo not drawn)
survivor count (dose: 10.0 mg/kg/injection, schedule: Q04DX004 (sc), vehicle: saline with Tween-80): 1 of 6 on day 15 | survivor count (dose: 20.0 mg/kg/injection, schedule: Q04DX004 (sc), vehicle: saline with Tween-80): 1 of 6 on day 15 | survivor count (dose: 40.0 mg/kg/injection, schedule: Q04DX004 (sc), vehicle: saline with Tween-80): 0 of 6 on day 15

O=C(O)CC(NC(=O)CP(=O)(O)O)C(=O)O.[NH-]C1CCCCC1[NH-].[Pt+2] (stereo not drawn)
survivor count (dose: 50.0 mg/kg/injection, schedule: Q04DX004 (sc), vehicle: dextrose): 3 of 6 on day 15

COc1cc2cc(c1Cl)N(C)C(=O)CC(OC(=O)CC(C)C)C1(C)OC1C(C)C1CC(O)(NC(=O)O1)C(OC)/C=C/C=C(C)C2 (stereo not drawn)
T/C (dose: 125.0 micrograms/kg/injection, schedule: Q04DX004 (sc), vehicle: saline + alcohol, evaluated on day 15): 135 % of control | survivor count (dose: 500.0 micrograms/kg/injection, schedule: Q04DX004 (sc), vehicle: saline + alcohol): 0 of 6 on day 15 and 3 of 6 on day 15

CC[C@@]1(O)C[C@H](OC2CC(N(C)C)C(OC3CC(O)C(OC4CCC(=O)C(C)O4)C(C)O3)C(C)O2)c2c(cc3c(c2O)C(=O)c2c(O)cccc2C3=O)[C@H]1C(=O)OC (stereo partly drawn)
survivor count (dose: 4.0 mg/kg/injection, schedule: Q01DX010 (ip), vehicle: water): 1 of 3 on day 11 | survivor count (dose: 8.0 mg/kg/injection, schedule: Q01DX010 (ip), vehicle: water): 0 of 3 on day 11 | survivor count (dose: 16.0 mg/kg/injection, schedule: Q01DX010 (ip), vehicle: water): 0 of 3 on day 11 | survivor count (dose: 16.0 mg/kg/injection, schedule: Q04DX004 (ip), vehicle: water): 0 of 6 on day 15 | survivor count (dose: 16.0 mg/kg/injection, schedule: Q04DX004 (sc), vehicle: water): 1 of 3 on day 15 | survivor count (dose: 32.0 mg/kg/injection, schedule: Q04DX004 (sc), vehicle: water): 0 of 3 on day 15

COc1ccc(S(=O)(=O)N=N/C=C2\C=CC=CN2O)cc1OC
T/C (dose: 75.0 mg/kg/injection, schedule: Q04DX004 (sc), vehicle: saline with Tween-80, evaluated on day 15): 144 % of control | survivor count (dose: 600.0 mg/kg/injection, schedule: Q04DX004 (sc), vehicle: saline with Tween-80): 2 of 6 on day 15 | survivor count (dose: 1200.0 mg/kg/injection, schedule: Q04DX004 (sc), vehicle: saline with Tween-80): 1 of 6 on day 15

Nc1nc(F)nc2c1ncn2C1OC(COP(=O)(O)O)C(O)C1O (stereo not drawn)
survivor count [3]: 0 of 3 on day 11
